The list shows only some results of the screen, not a fair sample: it is rich in T/C values a quarter to a half above the control, in often repeated tests (any T/C) and in doses without a T/C. Further doses and runs are listed elsewhere. T/C: endpoint of the treated group in % of that of the vehicle group. Some entries give survivors of the animals treated and no T/C: the source holds a T/C of zero for them, seemingly a mark for toxic or unscored doses. Some survivor counts are full or nearly so, which does not show that the dose was tolerated: survival well below the control is almost never listed, so the zero probably covers shortened survival too. Counts of survivors are from the toxicity check (mostly the fifth day) where no day follows; animals may have died later. Schedule codes are those of the source, taken here to give the interval after Q, in days (D) or hours (H), and the number of doses after X. Some entries hold several experiments; the values are given in rising order. For survival time, the PubChem record calls one and a half times the control and up active, and a quarter to a half above the control has no call in these data; cut-offs in other NCI protocols can differ. Some T/C values are followed by the survivors on the day toxicity was checked, most often the fifth; where none is given, no animal had died by that day.
Tested on: BDF1 mice, P388 leukemia ip, median survival T/C
Assay: NCI In Vivo Anticancer Drug Screen. Data for tumor model P388 Leukemia (intraperitoneal) in B6D2F1 (BDF1) mice
Conditions: T/C endpoint: median survival time, higher T/C = longer survival
Summary of the method: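 Read-out is survival of treated animals expressed relative to the vehicle group, as a T/C ratio.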

[1] = dose: 128.0 mg/kg/injection, schedule: Q01DX009 (ip), vehicle: other
[2] = dose: 160.0 mg/kg/injection, schedule: Q01DX009 (ip), vehicle: saline

COc1cc2cc3c4cc(OC)c(OC)cc4cc[n+]3c(C)c2cc1OC (tested in a mixture with another compound)
T/C (dose: 5.0 mg/kg/injection, schedule: Q01DX009 (ip), vehicle: saline): 136, 141, 157, 180 % of control | T/C (dose: 8.0 mg/kg/injection, schedule: Q01DX008 (ip), vehicle: Klucel (hydroxypropylcellulose) (HPC)): 133 % of control | T/C (dose: 8.0 mg/kg/injection, schedule: Q01DX008 (ip), vehicle: water): 147 % of control | T/C (dose: 8.0 mg/kg/injection, schedule: Q01DX009 (ip), vehicle: Klucel (hydroxypropylcellulose) (HPC), evaluated on day 30): 146 % of control | T/C (dose: 8.0 mg/kg/injection, schedule: Q01DX009 (ip), vehicle: Klucel (hydroxypropylcellulose) (HPC), evaluated on day 60): 141 % of control | T/C (dose: 8.0 mg/kg/injection, schedule: Q01DX009 (ip), vehicle: other, evaluated on day 30): 169 % of control | T/C (dose: 8.0 mg/kg/injection, schedule: Q01DX009 (ip), vehicle: other, evaluated on day 60): 142, 145, 155 % of control | T/C (dose: 8.0 mg/kg/injection, schedule: Q03HX016 (ip), vehicle: other): 137 % of control [8 of 10 alive] | T/C (dose: 8.0 mg/kg/injection, schedule: Q03HX024 (ip), vehicle: other): 145 % of control | T/C (dose: 10.0 mg/kg/injection, schedule: Q01DX009 (ip), vehicle: saline): 150, 159, 159 [5 of 6 alive], 169 % of control [5 of 6 alive] | T/C (dose: 12.5 mg/kg/injection, schedule: Q04DX003 (ip), vehicle: water): 131 % of control | T/C (dose: 16.0 mg/kg/injection, schedule: Q01DX008 (ip), vehicle: Klucel (hydroxypropylcellulose) (HPC)): 137 % of control | T/C (dose: 16.0 mg/kg/injection, schedule: Q01DX009 (ip), vehicle: Klucel (hydroxypropylcellulose) (HPC)): 142 % of control | T/C (dose: 16.0 mg/kg/injection, schedule: Q01DX009 (ip), vehicle: other, evaluated on day 30): 176 % of control [9 of 10 alive] | T/C (dose: 16.0 mg/kg/injection, schedule: Q01DX009 (ip), vehicle: other, evaluated on day 60): 150 [9 of 10 alive], 151 [9 of 10 alive], 153 % of control | T/C (dose: 16.0 mg/kg/injection, schedule: Q03HX008 (ip), vehicle: other): 125 % of control [9 of 10 alive] | T/C (dose: 18.7 mg/kg/injection, schedule: Q01DX009 (ip), vehicle: saline): 145 % of control [7 of 10 alive] | T/C (dose: 20.0 mg/kg/injection, schedule: Q01DX009 (ip), vehicle: saline): 170, 170 [5 of 6 alive], 181, 183 % of control | T/C (dose: 25.0 mg/kg/injection, schedule: Q04DX003 (ip), vehicle: other): 131 % of control | T/C (dose: 25.0 mg/kg/injection, schedule: Q04DX003 (ip), vehicle: water): 146 % of control | T/C (dose: 32.0 mg/kg/injection, schedule: Q01DX009 (ip), vehicle: Klucel (hydroxypropylcellulose) (HPC)): 144 % of control | T/C (dose: 32.0 mg/kg/injection, schedule: Q01DX009 (ip), vehicle: other, evaluated on day 30): 188 % of control | T/C (dose: 32.0 mg/kg/injection, schedule: Q01DX009 (ip), vehicle: other, evaluated on day 60): 153 [9 of 10 alive], 168, 175 % of control | T/C (dose: 32.0 mg/kg/injection, schedule: Q03HX008 (ip), vehicle: other): 146 % of control | T/C (dose: 37.5 mg/kg/injection, schedule: Q01DX001 (ip), vehicle: saline): 141 % of control | T/C (dose: 40.0 mg/kg/injection, schedule: Q01DX009 (ip), vehicle: saline): 159, 168, 180, 185 % of control [4 of 6 alive] | T/C (dose: 50.0 mg/kg/injection, schedule: Q01DX009 (ip), vehicle: saline with Tween-80): 145 % of control | T/C (dose: 50.0 mg/kg/injection, schedule: Q04DX003 (ip), vehicle: other): 137 % of control | T/C (dose: 64.0 mg/kg/injection, schedule: Q01DX009 (ip), vehicle: other, evaluated on day 30): 228 % of control | T/C (dose: 64.0 mg/kg/injection, schedule: Q01DX009 (ip), vehicle: other, evaluated on day 60): 195 and 222 % of control | survivor count (dose: 64.0 mg/kg/injection, schedule: Q01DX009 (ip), vehicle: other): 6 of 10 | T/C (dose: 64.0 mg/kg/injection, schedule: Q01DX009 (sc), vehicle: other): 134 % of control | survivor count (dose: 64.0 mg/kg/injection, schedule: Q03HX008 (ip), vehicle: other): 2 of 10 | survivor count (dose: 64.0 mg/kg/injection, schedule: Q03HX016 (ip), vehicle: other): 1 of 10 | survivor count (dose: 64.0 mg/kg/injection, schedule: Q03HX024 (ip), vehicle: other): 0 of 10 | T/C (dose: 64.0 mg/kg/injection, schedule: Q04DX003 (ip), vehicle: Klucel (hydroxypropylcellulose) (HPC)): 139 % of control | T/C (dose: 64.0 mg/kg/injection, schedule: Q08DX002 (ip), vehicle: other): 133 % of control | T/C (dose: 80.0 mg/kg/injection, schedule: Q01DX009 (ip), vehicle: saline): 145, 168, 176, 229 % of control [5 of 6 alive] | survivor count (dose: 100.0 mg/kg/injection, schedule: Q01DX009 (ip), vehicle: saline with Tween-80): 4 of 6 | T/C (dose: 100.0 mg/kg/injection, schedule: Q04DX003 (ip), vehicle: saline, evaluated on day 30): 145, 157, 178 % of control | T/C (dose: 100.0 mg/kg/injection, schedule: Q04DX003 (ip), vehicle: saline, evaluated on day 34): 186 % of control | T/C (dose: 128.0 mg/kg/injection, schedule: Q01DX001 (ip), vehicle: other): 127 % of control | survivor count (dose: 128.0 mg/kg/injection, schedule: Q01DX008 (ip), vehicle: Klucel (hydroxypropylcellulose) (HPC)): 2 of 6 | survivor count (dose: 128.0 mg/kg/injection, schedule: Q01DX008 (ip), vehicle: water): 1 of 6 | survivor count (dose: 128.0 mg/kg/injection, schedule: Q01DX009 (ip), vehicle: Klucel (hydroxypropylcellulose) (HPC)): 9 of 10 | survivor count (dose: 128.0 mg/kg/injection, schedule: Q01DX009 (ip), vehicle: clinical formulation): 10 of 10 | T/C [1]: 91 % of control | survivor count [1]: 8 of 10 and 10 of 10 | survivor count (dose: 128.0 mg/kg/injection, schedule: Q03HX008 (ip), vehicle: other): 0 of 10 | survivor count (dose: 128.0 mg/kg/injection, schedule: Q04DX003 (ip), vehicle: water): 3 of 6 | survivor count (dose: 150.0 mg/kg/injection, schedule: Q01DX009 (ip), vehicle: saline): 6 of 10 | T/C [2]: 122 [5 of 6 alive], 212 [4 of 6 alive], 225 % of control [5 of 6 alive] | survivor count [2]: 3 of 6 | survivor count (dose: 200.0 mg/kg/injection, schedule: Q01DX009 (ip), vehicle: saline with Tween-80): 5 of 6 | T/C (dose: 200.0 mg/kg/injection, schedule: Q04DX003 (ip), vehicle: saline, evaluated on day 30): 100, 163, 197 % of control | T/C (dose: 200.0 mg/kg/injection, schedule: Q04DX003 (ip), vehicle: saline, evaluated on day 34): 172 % of control | survivor count (dose: 200.0 mg/kg/injection, schedule: Q04DX003 (ip), vehicle: water): 4 of 6 | survivor count (dose: 240.0 mg/kg/injection, schedule: Q04DX003 (ip), vehicle: other): 4 of 8 | T/C (dose: 256.0 mg/kg/injection, schedule: Q01DX001 (ip), vehicle: other): 142 % of control [9 of 10 alive] | survivor count (dose: 256.0 mg/kg/injection, schedule: Q01DX008 (ip), vehicle: Klucel (hydroxypropylcellulose) (HPC)): 0 of 6 | survivor count (dose: 256.0 mg/kg/injection, schedule: Q01DX008 (ip), vehicle: other): 0 of 6 | survivor count (dose: 256.0 mg/kg/injection, schedule: Q01DX008 (ip), vehicle: water): 0 of 6 | survivor count (dose: 256.0 mg/kg/injection, schedule: Q01DX009 (ip), vehicle: Klucel (hydroxypropylcellulose) (HPC)): 0 of 10 and 3 of 10 | survivor count (dose: 256.0 mg/kg/injection, schedule: Q01DX009 (ip), vehicle: clinical formulation): 1 of 10 | survivor count (dose: 256.0 mg/kg/injection, schedule: Q01DX009 (ip), vehicle: other): 0 of 10, 3 of 10, 7 of 10 | T/C (dose: 256.0 mg/kg/injection, schedule: Q01DX009 (sc), vehicle: other): 134 % of control [7 of 10 alive] | survivor count (dose: 256.0 mg/kg/injection, schedule: Q04DX003 (ip), vehicle: water): 3 of 6 | survivor count (dose: 400.0 mg/kg/injection, schedule: Q01DX009 (ip), vehicle: saline with Tween-80): 0 of 6 | survivor count (dose: 400.0 mg/kg/injection, schedule: Q04DX002 (ip), vehicle: saline): 1 of 3 | survivor count (dose: 400.0 mg/kg/injection, schedule: Q04DX003 (ip), vehicle: other): 0 of 8 | T/C (dose: 400.0 mg/kg/injection, schedule: Q04DX003 (ip), vehicle: saline, evaluated on day 30): 175 % of control | T/C (dose: 400.0 mg/kg/injection, schedule: Q04DX003 (ip), vehicle: saline, evaluated on day 34): 195 % of control | survivor count (dose: 400.0 mg/kg/injection, schedule: Q04DX003 (ip), vehicle: saline): 2 of 6 and 3 of 6 | survivor count (dose: 512.0 mg/kg/injection, schedule: Q01DX001 (ip), vehicle: other): 0 of 10 | survivor count (dose: 512.0 mg/kg/injection, schedule: Q01DX009 (sc), vehicle: other): 3 of 10 | survivor count (dose: 512.0 mg/kg/injection, schedule: Q04DX003 (ip), vehicle: Klucel (hydroxypropylcellulose) (HPC)): 2 of 6 | survivor count (dose: 512.0 mg/kg/injection, schedule: Q04DX003 (ip), vehicle: other): 0 of 10 and 1 of 6 | survivor count (dose: 512.0 mg/kg/injection, schedule: Q04DX003 (ip), vehicle: water): 1 of 6 | survivor count (dose: 512.0 mg/kg/injection, schedule: Q08DX002 (ip), vehicle: other): 1 of 10 | survivor count (dose: 600.0 mg/kg/injection, schedule: Q01DX001 (ip), vehicle: saline): 10 of 10 | survivor count (dose: 600.0 mg/kg/injection, schedule: Q04DX003 (ip), vehicle: saline): 10 of 10 | survivor count (dose: 1024.0 mg/kg/injection, schedule: Q01DX001 (ip), vehicle: other): 0 of 10 | survivor count (dose: 1024.0 mg/kg/injection, schedule: Q01DX001 (oral), vehicle: other): 4 of 10 | survivor count (dose: 1024.0 mg/kg/injection, schedule: Q01DX001 (sc), vehicle: other): 6 of 10

From PubChem BioAssay AID328 (DTP/NCI, 2004)
